Laboratory results as given in patent US20070003534A1.
No constants are given. Whether binding was seen depends on the method and setting. Some entries that bind do so weakly or less than the wild type.

Molecular target: bait c-Jun protein from the pCMV-cJun(502-957)CBPzz vector
Assay: IVV cotranslation selection, bait c-Jun

binding	Binder
binds	SEQ ID NO 21 (protein) LRKWKGMLSRLQELRKEEETLLRLKAALHDQLNRLKVEELALQSMINSRGRTETLSSQPAPEQLCDMSLHVDNEVTINQTT
binds	SEQ ID NO 118 (protein) MEAAVCSEIEREDGDSSCGDVCFMDKGLHSISELSLDSSIHAINLHCNNISKISSIDHIWNLRHLDLSSNQISQIEGLNTLTKLCTLNLSCNLITRVEGLEALVNLTKLNLSYNHINDLSGLMPLHGLKYKLRYIDLHSNYIDSIHHLLQCTVGLHFLTNLILEKDGEGNPICLIPGYRAIILQTLPQLRILDCKNIFGEPVSLEEINSSHLQCLEGLLDNLVSSDSPLNISEDEVNDDVSAPPMDVLPSLKEFKSTPEDNVLASLLSVCPSSEPEKINQENDFQNEVKLQKLDDQILQLLNETNNSLIDNVPEKDLRPKRDTDITSESDYGNRRECSRKVPRRTKIPYYSRTIQTIKHHNKNNGAFVSCNRKMRQPYLRDLYVRSSLVNCNNLRDLDEQKTGVIKVDKNFSDNSTYRSLVEQLDQEREMRWKAEQTEKKLMDYIDELHKQADEKKDVHSQALITTDRLKDAIFKERHCKAQLEIIVHRLQNEVKKLTIELMKARDQQEDHIRHLRTLERALEKMEKQKAQQQAAQIRLIQEVELKASAADREINLLRTSLHQEKQQVQQLHELLALKEQEHRQEIETRQFFTDAEFQDALTKRLCKEERKHEQEVKEYQEKIDILNQQYLDLENEFRIALTVEARRFKDVQDGFEDVATELAKSKHALIWAQRKENESSSLIKDLTCMVKEQKTKLSEVCKLKQEAAANLQNQINTLEILIEDDKQKSIQIELLKHEKTQLISELAAKESLIYGLRTERKVWGQELACQSSTLSQSRGKLEAQIESLCRENESLRKSHESDCDALRIKCKIIEDQNETIRKLKDSLQEKDGQIKLLQEQIALIEKCSQEQLNEKSPQLDSIVEKLERHNERKEKLKQQLKAKELELEEIRKAYSTLNKKWHDKGELLSHLEMQVKEVKEKFEDKERKLKAERDKSLELQKDAMEKLQNMDDAFRRQVDEIVEAHQAEIMQLANEKQKYIDCANLKGDYARGD
binds	SEQ ID NO 15 (protein) LRKWKGMLSRLQELRKEEETLLRLKAALHDQLNRLKVEELALQSMINSRGRTETLSSQPAPEQLCDMYLHVDNEVTINQTTLKLST
binds	SEQ ID NO 31 (protein) REWKGMLSRLQELRKEEETLLRLKAALHDQLNRLKVEELALQSMINSRGRTETLSSQPAPEQLCDMSLHVDNEVTINQTHS
binds	SEQ ID NO 30 (protein) QRKWKGMLSRLQELRKEEETLLRLKAALHDQLNRLKVEELALQSMINSRGRTETLSSQPA
binds	RKWKGMLSRLQELRKEEETLLRLKAALHDQLNRLKVEELALQSMINSRGR [SEQ ID NO 33]
binds	SEQ ID NO 116 (protein) MMEIQMDEGGGVVVYQDDYCSGSVMSERVSGLAGSIYREFERLIHCYDEEVVKELMPLVVNVLENLDSVLSENQEHEVELELLREDNEQLLTQYEREKALRKQAEEKFIEFEDALEQEKKELQIQVEHYEFQTRQLELKAKNYADQISRLEERESEMKKEYNALHQRHTEMIQTYVEHIERSKMQQVGGSGQTESSLPGRSRKERPTSLNVFPLADGMVRAQMGGKLVPAGDHWHLSDLGQLQSSSSYQCPNDEMSESGQSSAAATPSTTGTKSNTPTSSVPSAAVTPLNESLQPLGDYVSVTKNNKQAREKRNSRNMEVQVTQEMRNVSIGMGSSDEWSDVQDIIDSTPELDVCPETRLERTGSSPTQGIVNKALGINTDSLYHELSTAGSEVIGDVDEGADLLGEFSVRDDFFGMGKEVGNLLLENSQLLETKNALNVVKNDLIAKVDQLSGEQEVLKGELEAAKQAKVKLENRIKELEEELKRVKSEAVTARREPREEVEDVSSYLCTELDKIPMAQRRRFTRVEMARVLMERNQYKERLMELQEAVRWTEMIRASREHPSVQEKKKSTIWQFFSRLFSSSSSPPPAKRSYPSVNIHYKSPTAAGFSQRRSHALCQISAGSRPLEFFPDDDCTSSARREQKREQYRQVREHVRNDDGRLQACGWSLPAKYKQLSPNGGQEDTRMKNVPVPVYCRPLVEKDPSTKLWCAAGVNLSGWKPHEEDSSNGPKPVPGRDPLTCDREGEGEPKSTHPSPEKKKAKETPEADATSSRVWILTSTLTTSKVVIIDANQPGTIVDQFTVCNAHVLCISSIPAASDSDYPPGEMFLDSDVNPEDSGADGVLAGITLVGCATRCNVPRSNCSSRGDTPVLDKGQGDVATTANGKVNPSQSTEEATEATEVPDPGPSESEATTVRPGPLTEHVFTDPAPTPSSSTQPASENGSESNGTIVQPQVEPSGELSTTTSSAAPTMWLGAQNGWLYVHSAVANWKKCLHSIKLKDSVLSLVHVKGRVLVALADGTLAIFHRGEDGQWDLSNYHLMDLGHPHHSIRCMAVVNDRVWCGYKNKVHVIQPKTMQIEKSFDAHPRRESQVRQLAWIGDGVWVSIRLDSTLRLYHAHTHQHLQDVDIEPYVSKMLGTGKLGFSFVRITALLIAGNRLWVGTGNGVVISIPLTETVVLHRGQLLGLRANKTSPTSGEGTRPGGIIHVYGDDSSDKAASSFIPYCSMAQAQLCFHGHRDAVKFFVSVPGNVLATLNGSVLDSPSEGPGPAAPAADAEGQKLKNALVLSGGEGYIDFRIGDGEDDETEECAGDVNQTKPSLSKAERSHIIVWQVSYTPE
binds	LEDQIKKLEDDRSSLQTAKAGLEDECKTLRQKVEILNELYQQSR [SEQ ID NO 111]
binds	SEQ ID NO 10 (protein) PRKWKGMLSRLQELRKEEETLLRLKAALHDQLNRLKVEELALQSMINSRGRTETLSSQPAPEQLCDMSLHVDNEVTINQTTR
binds	SEQ ID NO 24 (protein) LRKWKGMLSRLQELRNEEETLLRLKAALHDQLNRLKVEELALQSMINSRGRTETLSSQPAPEQLCDMSLHVDNEVTINQTTL
binds	SEQ ID NO 19 (protein) LRKWKGMLSRLQELRKEEETLLRLKAALHDQLNRLKVEELALQSMINSRGRTETLSSQPAPEQLCDMSLHVDNEVTINQTTL
binds	SEQ ID NO 25 (protein) LRKWKGMLSQLQELRKEEETLLRLKAALHDQLNRLKVEELALQSMINSRGRTETLSSQPVPEQLCDMSLHVDNEVTINQTTL
binds	SEQ ID NO 16 (protein) LRKWKGMLSRLQELRKEEETLLRLKAALHDQLNRLKVEELALQSMINSRGRTETLSSQPAPEQLCDMSLHVDNEVTINQTST
binds	SEQ ID NO 11 (protein) LRKWKGMLSRLQELRKEEETLLRLKAALHDQLNRLKVEELALQSMINSRGRTETLSFQPAPEQLCDMSLHVDNEVTINQTTR
binds	SEQ ID NO 23 (protein) LRKWKGMLSRLQELRKEEETLLRLNAALHDQLNRLKVEELALQSMINSRGRTETLSSQPAPEQLCDMSLHVDNEVTINQTTL
binds	SEQ ID NO 20 (protein) LRKWKGMLSRLQELRKEEETLLRLRAALHDQLNRLKVEELALQSMINSRGRTETPSSQPAPEQLCDMSLHVDNEVTINQTTL
binds	SEQ ID NO 27 (protein) LRKWKGMLSRLQELRKEEETLLRLKAALHDQLNRLKVEELALQSMINSRGRTETLSSQPAPEQLCDMSLHVDNEVTINQTHK
binds	SEQ ID NO 22 (protein) LRKWKGMLSRLQELRKEEETLLRLKAALHDQLNRLKVEELALQSMINSRGRTETLSSQPAPEQLCDMSLHVDNKVTINQTTP
binds	SEQ ID NO 109 (protein) MMDVSRTQTAVSIVEEDLKLLQLKLRASMSTKCNLEDQIKKLEDDRSSLQTAKAGLEDECKTLRQKVEILNELYQQKEMALQKKLSQEEYERQDREQRLTAADEKVVLAAEEVKTYKRRIEEMEEELQKTERSFKNQIAAHEKKAHDNWLKARAAERAMAEEKREAANLRHKLLEMTQKMAMRQDEPVIVKPMPGRPNTQNPPRRGLLSQNGSFGPSPVSGGECSPPLPAEPPGRPLSATLSRRDTPRSEFGSLDRHLPRPRWPSEASGKHSASDPGPAPVVNSSSRSSSPAKAVDEGKVNMAPKGPPPFPGVPLMGGPVPPPIRYGPPPQLCGGPFGPRPLPPPFVPGMHPPLGVREYAPGVLPGKRDLPLDPREFLPGHTPFRPPGSLGPREFFIPGTRLPPPTHGPQEYPPPPPAVRDSLPSGPREEAKPASPSSVQDRSQASKPTP
binds	SEQ ID NO 122 (protein) MASPTLSPDSSSQEALSAPTCSPTSDSENLSPDELELLAKLEEQNRLLEADSKSMRSMNGSRRNSGSSLVSSSSASSNLSHLEEDTWILWGRIANEWEEWRRRKEKLLKELIRKGIPHHFRAIVWQLLCSATDMPVKNQYSELLKMSSPCEKLIRRDIARTYPEHEFFKGQDSLGQEVLFNVMKAYSLVDREVGYCQGSAFIVGLLLMQMPEEEAFCVFVRLMQEYRLRELFKPSMAELGLCIYQFEYMLQEQLPDLNTHFRSQSFHTSMYASSWFLTLFLTTFPLPVATRVFDIFMYEGLEIVFRVGLALLQVNQTELMQLDMEGMSQYFQRVIPHQFDSCPDKLVLKAYQVKYNPKKMKRLEKEYAAMKSKEMEEQIEIKRLRTENRLLKQRIETLEKGQVTRAQEAEENYVIKRELAVVRQQCSSTAEDLQKAQSTIRQLQEQQVPGG
binds	SEQ ID NO 1 (protein) MLSRLQELRKEEETLLRLKAALHDQLNRLKVEELALQSMINSRGRTETLSSQPAPEQLCDMSLHVDNEVTINQTTLKLSTRSPMEEEEEEEEEEEEEEESDS
binds	SEQ ID NO 114 (protein) MNNFECEPAFYTCVEVTAGNRLFYHIVDSDEVSTKILMEFNKMNLPGEVTFLPLNKLDVRDTAYPETNDAIPMISKLRYNPRFDKAFKHVFGKTLICRSMEVSTQLARAFTMDCITLEGDQVSHRGALTGGYYDTRKSRLELQKDVRKAEEELGELEAKLNENLRRNIERINNEIDQLMNQMQQIETQQRKFKASRDSILSEMKMLKEKRQQSEKTFMPKQRSLQSLEASLHAMESTRESLKAELGTDLLSQLSLEDQKRVDALNDEIRQLQQENRQLLNERIKLEGIITRVETYLNENLRKRLDQVEQELNELRETEGGTVLTATTSELEAINKRVKDTMARSEDLDNSIDKTEAGIKELQKSMERWKNMEKEHMDAINHDTKELEKMTNRQGMLLKKKEECMKKIRELGSLPQEAFEKYQTLSLKQLFRKLEQCNTELKKYSHVNKKALDQFVNFSEQKERLIKRQEELDRGYKSIMELMKCT
